# No constants are given. Whether binding was seen depends on the method and setting. In cells and extracts the contact can be indirect. Some entries that bind do so weakly or less than the wild type.
# The chains behind the UniProt entries cited, without tags or fusion partners.
# UniProt Q9UN81: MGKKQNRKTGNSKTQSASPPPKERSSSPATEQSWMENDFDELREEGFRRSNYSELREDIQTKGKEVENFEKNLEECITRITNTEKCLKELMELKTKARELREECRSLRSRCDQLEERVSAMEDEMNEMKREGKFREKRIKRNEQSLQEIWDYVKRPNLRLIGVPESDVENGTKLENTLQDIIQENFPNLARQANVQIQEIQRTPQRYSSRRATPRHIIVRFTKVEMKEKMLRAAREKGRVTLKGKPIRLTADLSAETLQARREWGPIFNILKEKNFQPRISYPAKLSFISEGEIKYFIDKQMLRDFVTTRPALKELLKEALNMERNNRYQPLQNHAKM
# UniProt O00505: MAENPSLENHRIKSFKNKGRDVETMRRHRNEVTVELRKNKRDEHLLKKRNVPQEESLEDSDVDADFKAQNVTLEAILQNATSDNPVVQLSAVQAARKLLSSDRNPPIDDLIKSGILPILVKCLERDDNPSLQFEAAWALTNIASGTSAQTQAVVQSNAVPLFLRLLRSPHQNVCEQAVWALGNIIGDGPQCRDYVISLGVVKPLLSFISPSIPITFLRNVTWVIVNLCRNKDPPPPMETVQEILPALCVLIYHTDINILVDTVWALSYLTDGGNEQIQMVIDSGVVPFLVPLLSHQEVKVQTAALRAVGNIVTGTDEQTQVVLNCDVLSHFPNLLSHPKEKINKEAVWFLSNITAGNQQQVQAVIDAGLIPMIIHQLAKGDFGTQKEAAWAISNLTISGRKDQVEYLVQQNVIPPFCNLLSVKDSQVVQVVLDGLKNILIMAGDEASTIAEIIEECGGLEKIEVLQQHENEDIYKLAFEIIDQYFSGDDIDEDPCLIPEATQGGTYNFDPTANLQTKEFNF
# UniProt P52294: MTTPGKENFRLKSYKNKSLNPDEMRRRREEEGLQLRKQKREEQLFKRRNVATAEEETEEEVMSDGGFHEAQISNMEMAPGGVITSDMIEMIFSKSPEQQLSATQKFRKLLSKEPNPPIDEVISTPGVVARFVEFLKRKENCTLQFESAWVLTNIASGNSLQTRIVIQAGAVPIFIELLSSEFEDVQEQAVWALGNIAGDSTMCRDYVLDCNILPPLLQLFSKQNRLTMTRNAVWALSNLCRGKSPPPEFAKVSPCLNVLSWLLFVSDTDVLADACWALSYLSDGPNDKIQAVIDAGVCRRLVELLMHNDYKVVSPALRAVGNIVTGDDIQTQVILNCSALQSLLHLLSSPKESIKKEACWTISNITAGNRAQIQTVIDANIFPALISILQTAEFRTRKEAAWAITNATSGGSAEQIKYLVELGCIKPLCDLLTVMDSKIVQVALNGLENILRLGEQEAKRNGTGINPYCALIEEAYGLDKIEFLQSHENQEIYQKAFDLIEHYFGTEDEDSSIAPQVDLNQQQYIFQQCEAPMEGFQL
# UniProt O00629: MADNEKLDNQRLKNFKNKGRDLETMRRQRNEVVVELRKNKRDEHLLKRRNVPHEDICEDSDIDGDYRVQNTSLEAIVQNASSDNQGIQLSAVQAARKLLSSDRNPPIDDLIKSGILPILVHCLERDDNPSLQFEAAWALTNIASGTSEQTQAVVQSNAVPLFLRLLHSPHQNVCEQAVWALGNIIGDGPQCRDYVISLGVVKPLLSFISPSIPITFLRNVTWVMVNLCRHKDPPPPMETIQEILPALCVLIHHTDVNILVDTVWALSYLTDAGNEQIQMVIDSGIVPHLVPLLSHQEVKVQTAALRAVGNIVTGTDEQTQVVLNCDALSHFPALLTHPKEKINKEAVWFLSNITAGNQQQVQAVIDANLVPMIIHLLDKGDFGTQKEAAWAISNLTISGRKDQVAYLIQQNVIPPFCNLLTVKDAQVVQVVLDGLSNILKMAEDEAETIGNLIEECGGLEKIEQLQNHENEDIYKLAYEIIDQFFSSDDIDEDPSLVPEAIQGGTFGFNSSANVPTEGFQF
# UniProt O15131: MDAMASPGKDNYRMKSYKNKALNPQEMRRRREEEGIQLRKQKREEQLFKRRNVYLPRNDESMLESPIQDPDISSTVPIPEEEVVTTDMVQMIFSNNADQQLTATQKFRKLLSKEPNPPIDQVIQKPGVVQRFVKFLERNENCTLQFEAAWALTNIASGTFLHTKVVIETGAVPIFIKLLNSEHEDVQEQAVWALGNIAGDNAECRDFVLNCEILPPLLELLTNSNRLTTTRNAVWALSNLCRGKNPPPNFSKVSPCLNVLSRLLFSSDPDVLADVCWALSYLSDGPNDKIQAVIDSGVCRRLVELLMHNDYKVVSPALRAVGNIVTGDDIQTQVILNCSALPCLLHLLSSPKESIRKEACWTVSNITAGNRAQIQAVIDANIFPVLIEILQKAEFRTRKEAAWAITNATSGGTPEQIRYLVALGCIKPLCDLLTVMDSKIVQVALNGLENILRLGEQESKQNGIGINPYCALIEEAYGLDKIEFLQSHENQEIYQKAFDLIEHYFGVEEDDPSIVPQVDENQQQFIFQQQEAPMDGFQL
# UniProt Q14974: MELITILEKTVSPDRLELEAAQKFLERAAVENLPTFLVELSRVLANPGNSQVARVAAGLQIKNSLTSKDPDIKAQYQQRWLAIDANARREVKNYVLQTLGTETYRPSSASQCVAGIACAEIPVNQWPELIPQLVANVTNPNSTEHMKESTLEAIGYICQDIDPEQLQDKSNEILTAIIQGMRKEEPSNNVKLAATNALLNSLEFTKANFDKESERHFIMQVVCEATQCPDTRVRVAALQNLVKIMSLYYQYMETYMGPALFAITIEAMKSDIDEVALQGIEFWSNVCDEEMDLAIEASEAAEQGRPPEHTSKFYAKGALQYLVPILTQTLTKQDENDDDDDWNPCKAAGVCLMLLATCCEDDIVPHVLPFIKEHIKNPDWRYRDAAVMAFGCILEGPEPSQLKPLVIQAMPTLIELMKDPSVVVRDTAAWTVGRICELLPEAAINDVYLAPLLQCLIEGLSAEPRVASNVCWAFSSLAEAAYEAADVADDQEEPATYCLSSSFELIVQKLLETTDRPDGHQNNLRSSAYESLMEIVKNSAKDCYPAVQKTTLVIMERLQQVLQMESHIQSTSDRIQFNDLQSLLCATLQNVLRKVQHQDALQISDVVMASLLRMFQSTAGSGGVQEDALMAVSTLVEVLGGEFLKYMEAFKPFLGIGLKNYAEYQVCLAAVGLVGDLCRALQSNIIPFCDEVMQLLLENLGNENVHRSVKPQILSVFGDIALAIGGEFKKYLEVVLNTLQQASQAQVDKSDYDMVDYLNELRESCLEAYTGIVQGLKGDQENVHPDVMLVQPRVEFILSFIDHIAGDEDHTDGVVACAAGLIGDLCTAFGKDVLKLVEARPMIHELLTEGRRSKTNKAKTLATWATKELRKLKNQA
# Columns and labels:
# [1] = molecular target: flag-tagged human L1 ORF1 protein (human) (UniProt Q9UN81); assay: co-IP; HeLa cells transfected with FLAG-ORF1p, with or without a KPNA2 or KPNB1 plasmid; lysate on Anti-FLAG beads; KPNA2 and KPNB1 detected by western blot
# FLAG-tagged KPNA3 = FLAG-tagged KPNA3 (UniProt O00505); assay: co-IP; HeLa cells co-transfected with a FLAG-tagged KPNA and untagged ORF1p; lysate in TLB (50 mM Tris, 150 mM NaCl, 10 mM EDTA, 0.5% Triton X-100, pH 7.2) diluted in TBS; Anti-Flag M2 affinity gel overnight at 4 degrees Celsius; ORF1p detected by western blot with hORF1 antibodies
# FLAG-tagged KPNA1 = FLAG-tagged KPNA1 (UniProt P52294); assay: as above
# FLAG-tagged KPNA4 = FLAG-tagged KPNA4 (UniProt O00629); assay: as above
# FLAG-tagged KPNA5 = FLAG-tagged KPNA5 (UniProt O15131); assay: as above
# FLAG-tagged KPNA6 = FLAG-tagged KPNA6 (UniProt O60684); assay: as above
binding [1],binding (FLAG-tagged KPNA3),binding (FLAG-tagged KPNA1),binding (FLAG-tagged KPNA4),binding (FLAG-tagged KPNA5),binding (FLAG-tagged KPNA6),Substance
binds,,,,,,endogenous KPNB1 (from UniProt Q14974 1-876)
binds,,,,,,overexpressed wild type KPNB1 (from UniProt Q14974 1-876)
,binds,binds,binds,binds,binds,untagged wild type human L1 ORF1 protein (from UniProt Q9UN81 1-338)

# From article PMC6501352
